# Source: US20160090556A1, “PRODUCTS COMPRISING MALODOR REDUCTION MATERIALS” (The Procter & Gamble Company, priority 2014, published 2016)
# Like-named read-outs stand apart in the source and are kept apart here. Some entries repeat one wording, which the source may state once for all of them.
# Columns and labels:
# [1] = Melamine formaldehyde PMC Headspace Response Ratio; conditions: for Comment Code: Melamine formaldehyde PMC Headspace Response Ratio: code letter I
# [2] = Melamine formaldehyde PMC leakage; conditions: for Comment Code: Melamine formaldehyde PMC leakage: code letter J
# [3] = class code letter within Comment Code
SMILES,"Melamine formaldehyde PMC Headspace Response Ratio (Comment Code I) [1, 3]","Melamine formaldehyde PMC leakage (Comment Code J) [2, 3]",Melamine formaldehyde PMC Headspace Response Ratio (Comment Code I) [1],Melamine formaldehyde PMC leakage (Comment Code J) [2],Comment Code: Melamine formaldehyde PMC Headspace Response Ratio [1],Comment Code: Melamine formaldehyde PMC leakage [2]
COC(=O)C1C(C)C=CCC1(C)C (stereo not shown) [Material 364],I (Melamine formaldehyde PMC Headspace Response Ratio greater than or equal to 10),J (Melamine formaldehyde PMC leakage less than or equal to 5%),,,,
C=C(C)C1CC=C(C)CC1 (stereo not shown) [Material 702],,,I (Melamine formaldehyde PMC Headspace Response Ratio greater than or equal to 10),J (Melamine formaldehyde PMC leakage less than or equal to 5%),,
CCC1=CCCC(C)(C)C12C=CC(C)O2 (stereo not shown) [Material 413],I (Melamine formaldehyde PMC Headspace Response Ratio greater than or equal to 10),J (Melamine formaldehyde PMC leakage less than or equal to 5%),,,,
C=CC(C)(O)CCC=C(C)C (stereo not shown) [Material 157],,,,,I (Melamine formaldehyde PMC Headspace Response Ratio greater than or equal to 10),J (Melamine formaldehyde PMC leakage less than or equal to 5%)
CC(=O)CCC1C(C)=CCCC1(C)C (stereo not shown) [Material 448],,,,,I (Melamine formaldehyde PMC Headspace Response Ratio greater than or equal to 10),J (Melamine formaldehyde PMC leakage less than or equal to 5%)
C=C1C(O)CC2(C(C)C)CC12 (stereo not shown) [Material 1020],,,I (Melamine formaldehyde PMC Headspace Response Ratio greater than or equal to 10),J (Melamine formaldehyde PMC leakage less than or equal to 5%),,
COC(C)(C)CCCC(C)C=O (stereo not shown) [Material 125],,,,,I (Melamine formaldehyde PMC Headspace Response Ratio greater than or equal to 10),J (Melamine formaldehyde PMC leakage less than or equal to 5%)
Cc1ccc(C(C)C)cc1 [Material 940],,,,,I (Melamine formaldehyde PMC Headspace Response Ratio greater than or equal to 10),J (Melamine formaldehyde PMC leakage less than or equal to 5%)
CC=CC(=O)C1C(C)C=CCC1(C)C (stereo not shown) [Material 466],I (Melamine formaldehyde PMC Headspace Response Ratio greater than or equal to 10),J (Melamine formaldehyde PMC leakage less than or equal to 5%),,,,
CC(C)CCCC(C)CC=O (stereo not shown) [Material 1051],,,,,I (Melamine formaldehyde PMC Headspace Response Ratio greater than or equal to 10),J (Melamine formaldehyde PMC leakage less than or equal to 5%)
CC1=CCC2C(C1)C2(C)C (stereo not shown) [Material 468],I (Melamine formaldehyde PMC Headspace Response Ratio greater than or equal to 10),J (Melamine formaldehyde PMC leakage less than or equal to 5%),,,,
C=C1CCCC(C)(C)C1C(=O)OC (stereo not shown) [Material 1010],,,I (Melamine formaldehyde PMC Headspace Response Ratio greater than or equal to 10),J (Melamine formaldehyde PMC leakage less than or equal to 5%),,
CC/C=C\CC1=C(C)CCC1=O [Material 526],,,,,I (Melamine formaldehyde PMC Headspace Response Ratio greater than or equal to 10),J (Melamine formaldehyde PMC leakage less than or equal to 5%)
C=CC(C)(CCC=C(C)C)OC (stereo not shown) [Material 24],,,,,I (Melamine formaldehyde PMC Headspace Response Ratio greater than or equal to 10),J (Melamine formaldehyde PMC leakage less than or equal to 5%)
C=CC(=C)CCCC(C)(C)O [Material 34],I (Melamine formaldehyde PMC Headspace Response Ratio greater than or equal to 10),J (Melamine formaldehyde PMC leakage less than or equal to 5%),,,,
C=C1C=CC(C(C)C)CC1 (stereo not shown) [Material 619],,,,,I (Melamine formaldehyde PMC Headspace Response Ratio greater than or equal to 10),J (Melamine formaldehyde PMC leakage less than or equal to 5%)
CC1=CC(C)C2(CCCC(C)(C)C2=O)CC1 (stereo not shown) [Material 1022],,,I (Melamine formaldehyde PMC Headspace Response Ratio greater than or equal to 10),J (Melamine formaldehyde PMC leakage less than or equal to 5%),I (Melamine formaldehyde PMC Headspace Response Ratio greater than or equal to 10),J (Melamine formaldehyde PMC leakage less than or equal to 5%)
CC1=CC2(C=CC(C)O2)C(C(C)C)CC1 (stereo not shown) [Material 68],I (Melamine formaldehyde PMC Headspace Response Ratio greater than or equal to 10),J (Melamine formaldehyde PMC leakage less than or equal to 5%),,,,

SMILES,"Melamine formaldehyde PMC Headspace Response Ratio (Comment Code I) [1, 3]","Melamine formaldehyde PMC leakage (Comment Code J) [2, 3]",Melamine formaldehyde PMC Headspace Response Ratio (Comment Code I) [1],Melamine formaldehyde PMC leakage (Comment Code J) [2],Comment Code: Melamine formaldehyde PMC Headspace Response Ratio [1],Comment Code: Melamine formaldehyde PMC leakage [2]
C=C(C)C1CC=C(C)CC1 (stereo not shown) [Material 145],I (Melamine formaldehyde PMC Headspace Response Ratio greater than or equal to 10),J (Melamine formaldehyde PMC leakage less than or equal to 5%),,,,
CC1=CCC(C(C)CC=O)CC1 (stereo not shown) [Material 159],I (Melamine formaldehyde PMC Headspace Response Ratio greater than or equal to 10),J (Melamine formaldehyde PMC leakage less than or equal to 5%),,,,
CCCCC1OC(C)CC(C)(C)O1 (stereo not shown) [Material 278],I (Melamine formaldehyde PMC Headspace Response Ratio greater than or equal to 10),J (Melamine formaldehyde PMC leakage less than or equal to 5%),,,,
C=C(C)C1CC=C(C=O)CC1 (stereo not shown) [Material 946],,,I (Melamine formaldehyde PMC Headspace Response Ratio greater than or equal to 10),J (Melamine formaldehyde PMC leakage less than or equal to 5%),,
CC12CCC(CC1)C(C)(C)S2 [Material 873],,,I (Melamine formaldehyde PMC Headspace Response Ratio greater than or equal to 10),J (Melamine formaldehyde PMC leakage less than or equal to 5%),,
C=C(C)[C@@H]1CC=C(C)C(=O)C1 [Material 169],,,,,I (Melamine formaldehyde PMC Headspace Response Ratio greater than or equal to 10),J (Melamine formaldehyde PMC leakage less than or equal to 5%)
CCCCCC(C#N)CCC (stereo not shown) [Material 186],I (Melamine formaldehyde PMC Headspace Response Ratio greater than or equal to 10),J (Melamine formaldehyde PMC leakage less than or equal to 5%),,,,
CC1C(C)(C)C2=C(C(=O)CCC2)C1(C)C (stereo not shown) [Material 572],,,I (Melamine formaldehyde PMC Headspace Response Ratio greater than or equal to 10),J (Melamine formaldehyde PMC leakage less than or equal to 5%),,
CC1=CC(C)C2C(CCC(C)(C)C2O)C1 (stereo not shown) [Material 39],I (Melamine formaldehyde PMC Headspace Response Ratio greater than or equal to 10),J (Melamine formaldehyde PMC leakage less than or equal to 5%),,,I (Melamine formaldehyde PMC Headspace Response Ratio greater than or equal to 10),J (Melamine formaldehyde PMC leakage less than or equal to 5%)
C=CC(C)=CCC1OC1(C)C (stereo not shown) [Material 73],,,,,I (Melamine formaldehyde PMC Headspace Response Ratio greater than or equal to 10),J (Melamine formaldehyde PMC leakage less than or equal to 5%)
CCC(C)(C)C1CCC(=O)CC1 [Material 21],I (Melamine formaldehyde PMC Headspace Response Ratio greater than or equal to 10),J (Melamine formaldehyde PMC leakage less than or equal to 5%),,,,
CC1=CC(=O)[C@@H]2C[C@H]1C2(C)C [Material 1119],,,,,I (Melamine formaldehyde PMC Headspace Response Ratio greater than or equal to 10),J (Melamine formaldehyde PMC leakage less than or equal to 5%)
CC(C)(O)CCC1CCCCC1 [Material 496],,,,,I (Melamine formaldehyde PMC Headspace Response Ratio greater than or equal to 10),J (Melamine formaldehyde PMC leakage less than or equal to 5%)
CC(=O)C(C)=CC1C(C)=CCCC1(C)C (stereo not shown) [Material 703],,,,,I (Melamine formaldehyde PMC Headspace Response Ratio greater than or equal to 10),J (Melamine formaldehyde PMC leakage less than or equal to 5%)
COc1c(C(C)(C)C)cc([N+](=O)[O-])c(C)c1[N+](=O)[O-] [Material 78],I (Melamine formaldehyde PMC Headspace Response Ratio greater than or equal to 10),J (Melamine formaldehyde PMC leakage less than or equal to 5%),,,,
C=C[C@@](C)(O)CCC=C(C)C [Material 1017],,,,,I (Melamine formaldehyde PMC Headspace Response Ratio greater than or equal to 10),J (Melamine formaldehyde PMC leakage less than or equal to 5%)
CC1CCC(C(C)(C)S)C(=O)C1 (stereo not shown) [Material 1059],,,I (Melamine formaldehyde PMC Headspace Response Ratio greater than or equal to 10),J (Melamine formaldehyde PMC leakage less than or equal to 5%),,
Cc1csc(C(C)C)n1 [Material 848],,,,,I (Melamine formaldehyde PMC Headspace Response Ratio greater than or equal to 10),J (Melamine formaldehyde PMC leakage less than or equal to 5%)
